Some entries share one result that the patent states for a list of compounds.
System: MC65 cells
Experiment: Efficacy against Aβ toxicity in MC65 Tet on/off cells (MTT assay)
Format: cell-based
Conditions: compounds C687-C695, 100 nM, 2.5 μM, 5 μM, 72 hours
Procedure: FIGS. 4A and 4B are a pair of graphs plotting survival of MC65 cells after treatment with the indicated compounds, in the presence (Tet/off) or absence (Tet/on) of Aβ expression. MC65 cells were cultured for 72 hours in the presence (on) or absence (off) of tetracycline in OPTI-MEM media without serum. […] Cell viability was measured with an MTT assay 72 hours later. Experiments were performed in triplicates. Every 96-well plate had its own on/off control. Four experimental compounds were tested per each plate. Experiments were repeated independently twice.
FIGS. 5A and 5B are a pair of graphs plotting survival of MC65 cells after treatment with the indicated compounds, in the presence (Tet/off) or absence (Tet/on) of Aβ expression. MC65 cells were cultured for 72 hours in the presence (on) or absence (off) of tetracycline in OPTI-MEM media without serum. […] Cell viability was measured with an MTT assay 72 hours later. […]
FIG. 6A is a graph plotting survival of MC65 cells after treatment with the indicated compounds, in the presence (Tet/off) or absence (Tet/on) of Aβ expression. […] Cell viability was measured with an MTT assay 72 hours later. […]
FIGS. 11A and 11B are graphs plotting survival of MC65 cells cultured for 72 hours in the presence (on; FIG. 11A) or absence (off, FIG. 11B) of tetracycline in OPTI-MEM media without serum. […] Cell viability was measured with an MTT assay 72 hours later. […]
FIGS. 15A and 15B are graphs plotting percent survival of MC65 cells cultured in the presence of tetracycline (Tet-On) (FIG. 15A) or without tetracycline (Tet-off) (FIG. 15B) in OPTI-MEM media without serum. […] Cell viability was measured with an MTT assay 72 hours after plating. […]
The efficacy of all 24 compounds against Aβ toxicity was evaluated in MC65 cells. […] The viability of MC65 cells expressing Aβ (Tet/off, 40% viability) or not expressing Aβ (Tet/on, 100% viability) was measured after treatment with individual compounds. […]
To further characterize the efficacy of these four compounds, the half maximal effective concentration (EC50) against Aβ toxicity in MC65 cells was measured using an MTT assay. […]

## Cc1cccc(O[C@@H]2CCC[C@H](C(C)CN(CC#N)Cc3ccncc3)C2)c1 (stereo partly drawn) [Compound C695]
  efficacy against Aβ toxicity: much higher efficacy against Aβ toxicity compared to the rest of the compounds

## Cc1cccc(O[C@@H]2CCC[C@H](C(C)CN(C)Cc3ccncc3)C2)c1 (stereo partly drawn) [Compound C693]
  efficacy against Aβ toxicity: much higher efficacy against Aβ toxicity compared to the rest of the compounds

## Cc1cccc(O[C@@H]2CCC[C@H](C(C)CN(Cc3ccncc3)C(C)C)C2)c1 (stereo partly drawn) [Compound C694]
  efficacy against Aβ toxicity: much higher efficacy against Aβ toxicity compared to the rest of the compounds

Reference: patent publication US12017992B2, “Compounds for modulating mitochondrial function” (Mayo Foundation for Medical Education and Research, priority 2015, dated 2024)
